Counter-ions that a name gives are not always drawn. Repeats are few or missing, and single values can be far off.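 All cells are established human bladder cancer lines, one of them grown from a patient-derived xenograft. Viability was read by a luminescent ATP assay as percent inhibition versus vehicle over a seven-point dilution series; the paper calls scores above 59 very active, 30–59 active, 21–29 semi-active, 9–20 low active and below 9 inactive.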
Tests used:
Test in all cases: drug sensitivity score DSS3 (score 0-100); higher = more sensitive; extreme values may be limits of the assay
Settings in all cases: culture: 3D, ultra-low attachment; treatment time: 5 days
5637 = tested on: 5637
BC8149 = tested on: BC8149
J82 = tested on: J82
SCaBER = tested on: SCaBER
SW780 = tested on: SW780
T-24 = tested on: T-24
TCCSUP = tested on: TCCSUP
UM-UC-12 = tested on: UM-UC-12
UM-UC-13 = tested on: UM-UC-13
UM-UC-14 = tested on: UM-UC-14
UM-UC-15 = tested on: UM-UC-15
UM-UC-17 = tested on: UM-UC-17
UM-UC-18 = tested on: UM-UC-18
UM-UC-1 = tested on: UM-UC-1
UM-UC-3 = tested on: UM-UC-3
UM-UC-5 = tested on: UM-UC-5
UM-UC-6 = tested on: UM-UC-6
UM-UC-9 = tested on: UM-UC-9

Row | Compound | drug sensitivity score DSS3 5637 | drug sensitivity score DSS3 (BC8149) | drug sensitivity score DSS3 (J82) | drug sensitivity score DSS3 (SCaBER) | drug sensitivity score DSS3 (SW780) | drug sensitivity score DSS3 (T-24) | drug sensitivity score DSS3 (TCCSUP) | drug sensitivity score DSS3 (UM-UC-12) | drug sensitivity score DSS3 (UM-UC-13) | drug sensitivity score DSS3 (UM-UC-14) | drug sensitivity score DSS3 (UM-UC-15) | drug sensitivity score DSS3 (UM-UC-17) | drug sensitivity score DSS3 (UM-UC-18) | drug sensitivity score DSS3 (UM-UC-1) | drug sensitivity score DSS3 (UM-UC-3) | drug sensitivity score DSS3 (UM-UC-5) | drug sensitivity score DSS3 (UM-UC-6) | drug sensitivity score DSS3 (UM-UC-9)
1 | O=C(NOCC1CC1)c1ccc(F)c(F)c1Nc1ccc(I)cc1Cl (max dose 10000 nM) | 1.78 | 1.17 | 0.167 | 7.73 | 0 | 5.29 | 4.23 | 2.58 | 6.89 | 1.69 | 8.11 | 0 | 0 | 2.45 | 4.03 | 0 | 0 | 0
2 | O=C(NOC[C@H](O)CO)c1ccc(F)c(F)c1Nc1ccc(I)cc1F (max dose 10000 nM) | 5.93 | 12.7 | 0.521 | 37.3 | 0 | 7.74 | 5.27 | – | 23.6 | 2.22 | 0 | 0 | 0 | 8.89 | 29.3 | 43.7 | 0 | 0.705
3 | O=C(c1ccc(F)c(F)c1Nc1ccc(I)cc1F)N1CC(O)([C@@H]2CCCCN2)C1 [Cobimetinib] (max dose 10000 nM) | – | – | – | – | – | – | – | – | 36.4 | – | – | – | – | – | – | – | – | –
4 | O=C(NC[C@H](O)CO)c1ccncc1Nc1ccc(I)cc1F [Pimasertib] (max dose 10000 nM) | – | – | – | – | – | – | – | – | 25.6 | – | – | – | – | – | – | – | – | –
5 | COc1cc(F)c(F)c(Nc2ccc(I)cc2F)c1NS(=O)(=O)C1(C[C@H](O)CO)CC1 [Refametinib] (max dose 10000 nM) | – | – | – | – | – | – | – | – | 16 | – | – | – | – | – | – | – | – | –
6 | Cn1cnc2c(F)c(Nc3ccc(Br)cc3Cl)c(C(=O)NOCCO)cc21 [Selumetinib] (max dose 10000 nM) | – | – | – | – | – | – | – | – | 7.43 | – | – | – | – | – | – | – | – | –
7 | Cn1c(=O)c(F)c(Nc2ccc(I)cc2F)c2c(=O)n(C[C@@H](O)CO)cnc21 [TAK-733] (max dose 10000 nM) | 15.5 | 4.49 | 0.837 | 36.9 | 0.19 | 17.4 | 13.9 | 5.8 | 45 | 11 | 9.94 | 0.379 | 0 | 13.1 | 19.1 | 59.3 | 3.96 | 0.418
8 | CC(=O)Nc1cccc(-n2c(=O)n(C3CC3)c(=O)c3c(Nc4ccc(I)cc4F)n(C)c(=O)c(C)c32)c1 [Trametinib] (max dose 10000 nM) | – | – | – | – | – | – | – | – | 68.1 | – | – | – | – | – | – | – | – | –
9 | COCC[n+]1c2c(n(Cc3cnccn3)c1C)C(=O)c1ccccc1C2=O [YM155 (Sepantronium Bromide)] (max dose 10000 nM) | 86.2 | 73.1 | 2.75 | 30.5 | 45.2 | 14.8 | 83.4 | 70.7 | – | 5.02 | 57.5 | 56.5 | 49.2 | 65.1 | 82.6 | 69 | 54 | 64.1
10 | CC(c1cc2ccccc2s1)N(O)C(N)=O (configuration not stated) [Zileuton] (max dose 10000 nM) | 1.82 | 0 | 0 | 0 | 0 | 0 | 3.03 | 0 | – | 0.00026 | 0 | 0 | 0 | 0.412 | 0 | 0 | 0 | 0
11 | C[C@H](Nc1ncnc2[nH]cnc12)c1nc2ccc(F)cc2c(=O)n1-c1ccccc1 [acalisib (GS-9820)] (max dose 10000 nM) | 0 | 2.4 | 0.374 | 0.945 | 0 | 0.389 | 0.378 | 0.86 | – | 0.278 | 0 | 0 | 0.247 | 12.3 | 3.61 | 0 | 2.19 | 0
12 | CCc1cc2c(cc1N1CCC(N3CCOCC3)CC1)C(C)(C)c1[nH]c3cc(C#N)ccc3c1C2=O [alectinib HCL] (max dose 2000 nM) | 0 | 0 | 0 | 0 | 0 | 0.0199 | 0 | 0 | – | 0 | 2.45 | 0 | 0 | 0 | 0 | 0 | 0.162 | 0
13 | CNC(=O)c1ccc(N2C(=S)N(c3cnc(C#N)c(C(F)(F)F)c3)C(=O)C23CCC3)cc1F [apalutamide] (max dose 10000 nM) | 0 | 0 | 0 | 0 | 0 | 0 | 0 | 0 | – | 0 | 0 | 0 | 0.209 | 0 | 0 | 0 | 0 | 0
14 | Cc1cc(Nc2ncc(Cl)c(Nc3ccccc3S(=O)(=O)C(C)C)n2)c(OC(C)C)cc1C1CCNCC1 [ceritinib] (max dose 10000 nM) | 58.7 | 43.5 | 7.33 | 23.4 | 10.7 | 0.224 | 62.8 | 35 | – | 39.7 | 2.69 | 26.9 | 52.2 | 37.3 | 8.59 | 2.53 | 9.34 | 4.65
15 | C[C@]12CC[C@@H]3c4ccc(O)cc4C[C@@H](CCCCCCCCC[S+]([O-])CCCC(F)(F)C(F)(F)F)[C@H]3[C@@H]1CC[C@@H]2O (some centres not stated) [fulvestrant] (max dose 10000 nM) | 9.25 | 4.93 | 7.77 | 18 | 7.02 | 17.8 | 22.6 | 8.9 | – | 13.7 | 0 | 9.1 | 0 | 23.8 | 2.82 | 0 | 4.54 | 0
16 | C#Cc1cccc(Nc2ncnc3cc4c(cc23)OCCOCCOCCO4)c1 [icotinib] (max dose 10000 nM) | 9.16 | 4.99 | 5.03 | 4.97 | 4.54 | 0 | 4.39 | 16.3 | – | 2.46 | 0 | 1.8 | 1.98 | 0 | 0 | 0 | 0.0196 | 0.126
17 | CC(C)N(C[C@H]1O[C@@H](n2cnc3c(N)ncnc32)[C@H](O)[C@@H]1O)[C@H]1C[C@@H](CCc2nc3cc(C(C)(C)C)ccc3[nH]2)C1 [pinometostat] (max dose 10000 nM) | 0 | 0 | 0 | 0 | 0 | 0.934 | 1.02 | 0 | – | 0 | 32.4 | 0 | 0 | 0 | 0 | 0 | 0 | 0
18 | Cn1ncnc1[C@H]1c2n[nH]c(=O)c3cc(F)cc(c23)N[C@@H]1c1ccc(F)cc1 [talazoparib] (max dose 10000 nM) | 35 | 32.3 | 4.29 | 0 | 0 | 0 | 59.4 | 13.8 | – | 0 | 0 | 14.9 | 15.6 | 16.2 | 5.5 | 0.681 | 23.7 | 0.0754
19 | CCN(c1cc(-c2ccc(CN3CCOCC3)cc2)cc(C(=O)NCc2c(C)cc(C)[nH]c2=O)c1C)C1CCOCC1 [tazemetostat] (max dose 5000 nM) | 5.75 | 0 | 0 | 0 | 0.18 | 0 | 14.5 | 0 | – | 2.69 | 0 | 5.1 | 0 | 6.22 | 0 | 0 | 6.87 | 0
20 | CC(=O)[C@@]1(O)CC[C@H]2[C@@H]3CCC4=CC(=O)CCC4=C3[C@@H](c3ccc(N(C)C)cc3)C[C@@]21C [ulipristal] (max dose 10000 nM) | 1.22 | 8.24 | 0 | 5 | 0.21 | 0 | 3.6 | 0 | – | 0 | 0 | 0 | 0.815 | 0 | 2.05 | 0 | 0 | 0

Complete entries, looked up by structure. Values in the order: drug sensitivity score DSS3 5637 | drug sensitivity score DSS3 (BC8149) | drug sensitivity score DSS3 (J82) | drug sensitivity score DSS3 (SCaBER) | drug sensitivity score DSS3 (SW780) | drug sensitivity score DSS3 (T-24) | drug sensitivity score DSS3 (TCCSUP) | drug sensitivity score DSS3 (UM-UC-12) | drug sensitivity score DSS3 (UM-UC-13) | drug sensitivity score DSS3 (UM-UC-14) | drug sensitivity score DSS3 (UM-UC-15) | drug sensitivity score DSS3 (UM-UC-17) | drug sensitivity score DSS3 (UM-UC-18) | drug sensitivity score DSS3 (UM-UC-1) | drug sensitivity score DSS3 (UM-UC-3) | drug sensitivity score DSS3 (UM-UC-5) | drug sensitivity score DSS3 (UM-UC-6) | drug sensitivity score DSS3 (UM-UC-9)
`Cn1ncnc1[C@H]1c2n[nH]c(=O)c3cc(F)cc(c23)N[C@@H]1c1ccc(F)cc1` [talazoparib] (max dose 10000 nM) is listed with 35 | 32.3 | 4.29 | 0 | 0 | 0 | 59.4 | 13.8 | – | 0 | 0 | 14.9 | 15.6 | 16.2 | 5.5 | 0.681 | 23.7 | 0.0754
`CCc1cc2c(cc1N1CCC(N3CCOCC3)CC1)C(C)(C)c1[nH]c3cc(C#N)ccc3c1C2=O` [alectinib HCL] (max dose 2000 nM) is listed with 0 | 0 | 0 | 0 | 0 | 0.0199 | 0 | 0 | – | 0 | 2.45 | 0 | 0 | 0 | 0 | 0 | 0.162 | 0
